In the supplement of paper PMC6078165:
± gives the standard deviation of the averaged measurements. The reference is the same well before dosing, and untreated signal decays as well.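 Fibroblast labels name human fibroblasts: mostly primary ones from tissues such as uterus (C12385, HUF), lung (H6013), bone (Hs27A), adrenal (HADF) and skin (WS1), plus mammary HMF and breast cancer-associated Hs343T. The cancer cells are basal-like or mesenchymal-like triple-negative breast cancer lines. The paper calls a changed response a hit when it shifts by more than 3x the replicate standard deviation. The tissue of the other fibroblasts is not given here.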

Tested on: Hs578T
Experiment: relative JC-1 red fluorescence (viability) vs pre-drug, coculture with fibroblast (fraction); higher = more viable cancer cells
Conditions: 1 µM
Method: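 JC-1 labelled TNBC cells cocultured 1:1 (1,500 cells each) with CellTrace Violet stained primary or stromal fibroblasts in 384-well plates in FluoroBrite medium, treated with one of 42 anticancer drugs at 0.1, 1, 10 or 100 uM. JC-1 red fluorescence (mitochondrial integrity in cancer cells only) was read by plate reader every 8 h for 72 h. Values are normalised to each well's pre-drug value. The stock of one drug was tenfold lower, so its dose labels may be too high.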

CCc1c2c(nc3ccc(OC(=O)N4CCC(N5CCCCC5)CC4)cc13)-c1cc3c(c(=O)n1C2)COC(=O)[C@]3(O)CC [Irinotecan]
Conditions	relative JC-1 red fluorescence
8 h	0.877 ± 0.03
16 h	0.782 ± 0.0086
24 h	0.747 ± 0.07
32 h	0.703 ± 0.088
40 h	0.644 ± 0.1
48 h	0.6 ± 0.12
56 h	0.588 ± 0.13
64 h	0.546 ± 0.14
72 h	0.529 ± 0.14

relative JC-1 red fluorescence
Conditions	8 h	16 h	24 h	32 h	40 h	48 h	56 h	64 h	72 h
coculture fibroblast: C12385	0.792 ± 0.013	0.7065 ± 0.0042	0.636 ± 0.021	0.554 ± 0.0075	0.4891 ± 0.004	0.453 ± 0.0047	0.426 ± 0.0053	0.412 ± 0.0052	0.404 ± 0.007
coculture fibroblast: H6013	0.823 ± 0.011	0.76 ± 0.023	0.708 ± 0.032	0.67 ± 0.041	0.638 ± 0.054	0.626 ± 0.061	0.605 ± 0.064	0.597 ± 0.063	0.573 ± 0.059
coculture fibroblast: H6019	0.748 ± 0.0091	0.6655 ± 0.0022	0.674 ± 0.043	0.581 ± 0.051	0.551 ± 0.068	0.529 ± 0.072	0.504 ± 0.08	0.49 ± 0.085	0.47 ± 0.088
coculture fibroblast: H6076	0.8914 ± 0.0082	0.8141 ± 0.0014	0.769 ± 0.049	0.749 ± 0.053	0.709 ± 0.057	0.706 ± 0.069	0.71 ± 0.082	0.704 ± 0.087	0.703 ± 0.097
coculture fibroblast: H6231	0.88 ± 0.017	0.77543 ± 0.00027	0.712 ± 0.017	0.655 ± 0.021	0.587 ± 0.023	0.551 ± 0.03	0.516 ± 0.037	0.494 ± 0.033	0.481 ± 0.036
coculture fibroblast: HADF	0.835 ± 0.012	0.79 ± 0.042	0.737 ± 0.071	0.683 ± 0.074	0.646 ± 0.094	0.624 ± 0.1	0.586 ± 0.12	0.58 ± 0.13	0.561 ± 0.14
coculture fibroblast: HCFa	0.835 ± 0.015	0.778 ± 0.012	0.715 ± 0.0023	0.646 ± 0.012	0.587 ± 0.039	0.563 ± 0.046	0.53 ± 0.058	0.515 ± 0.055	0.48 ± 0.056
coculture fibroblast: HCPF	0.907 ± 0.048	0.83 ± 0.059	0.794 ± 0.068	0.753 ± 0.079	0.696 ± 0.082	0.666 ± 0.083	0.662 ± 0.098	0.626 ± 0.1	0.621 ± 0.11
coculture fibroblast: HHSteC	0.845 ± 0.022	0.755 ± 0.017	0.694 ± 0.0028	0.634 ± 0.014	0.587 ± 0.018	0.555 ± 0.014	0.531 ± 0.011	0.512 ± 0.0091	0.4836 ± 0.0031
coculture fibroblast: HMF	0.84626 ± 8.8e-05	0.779 ± 0.031	0.734 ± 0.05	0.7 ± 0.069	0.647 ± 0.078	0.612 ± 0.09	0.597 ± 0.1	0.568 ± 0.11	0.561 ± 0.12
coculture fibroblast: HPFa	0.89 ± 0.054	0.824 ± 0.041	0.781 ± 0.055	0.737 ± 0.053	0.718 ± 0.054	0.695 ± 0.06	0.655 ± 0.047	0.637 ± 0.036	0.594 ± 0.021
coculture fibroblast: HUF	0.89 ± 0.011	0.76 ± 0.011	0.757 ± 0.034	0.641 ± 0.045	0.585 ± 0.054	0.548 ± 0.064	0.522 ± 0.076	0.515 ± 0.081	0.511 ± 0.095
coculture fibroblast: Hs27A	0.879 ± 0.018	0.852 ± 0.015	0.8049 ± 0.0019	0.768 ± 0.018	0.717 ± 0.028	0.698 ± 0.016	0.657 ± 0.029	0.663 ± 0.042	0.619 ± 0.051
coculture fibroblast: Hs343T	0.86 ± 0.081	0.764 ± 0.064	0.726 ± 0.031	0.694 ± 0.015	0.635 ± 0.0098	0.6038 ± 0.0016	0.582 ± 0.011	0.563 ± 0.03	0.566 ± 0.033
coculture fibroblast: WS1	0.799 ± 0.032	0.7128 ± 0.0012	0.68 ± 0.0021	0.5844 ± 0.0035	0.539 ± 0.012	0.525 ± 0.0065	0.511 ± 0.012	0.519 ± 0.014	0.517 ± 0.019
